No constants are given. Whether binding was seen depends on the method and setting. For some assays here: In cells and extracts the contact can be indirect. Some results given as binding are weak or reduced against the parent protein; the word gives no strength.
Columns and labels:
myc-Rho kinase = myc-Rho kinase (UniProt P70336); experiment: co-immunoprecipitation from HEK293T cells co-transfected with FLAG-RhoA63L, myc-ROCK and C4RIP-V5
myc-RhoA63L [1] = molecular target: myc-RhoA63L (UniProt P61586); experiment: co-immunoprecipitation, myc-IP from HEK293T cells co-transfected with myc-RhoA63L
CRMP4a-V5 (rat) [2] = molecular target: CRMP4a-V5 (rat) (UniProt Q62952); experiment: overlay of V5-immunoprecipitated CRMP-V5 with recombinant RhoA (FIG. 2d)
CRMP4b-V5 (rat) [3] = experiment: as above
CRMP4a-V5 (rat) [4] = molecular target: CRMP4a-V5 (rat) (UniProt Q62952); experiment: RhoA overlay (far western) on CRMP-V5 immunoprecipitated from 293T cells
CRMP4b-V5 (rat) [5] = experiment: as above
myc-RhoA63L [6] = molecular target: myc-RhoA63L (UniProt P61586); experiment: co-immunoprecipitation, myc-IP from co-transfected HEK293T cells
myc-RhoAN19 [7] = molecular target: myc-RhoAN19 (UniProt P61586); experiment: as above
myc-wild type RhoA [8] = molecular target: myc-wild type RhoA (UniProt P61586); experiment: co-immunoprecipitation, myc-IP from co-transfected HEK293T cells (FIG. 2a)
myc-RhoA63L [9] = molecular target: myc-RhoA63L (UniProt P61586); experiment: co-immunoprecipitation, myc-IP from co-transfected HEK293T cells (FIG. 2b)
myc-RhoAN19 [10] = molecular target: myc-RhoAN19 (UniProt P61586); experiment: co-immunoprecipitation, myc-IP from co-transfected HEK293T cells (FIG. 2c)
myc-wild type RhoA [11] = molecular target: myc-wild type RhoA (UniProt P61586); experiment: co-immunoprecipitation, myc-IP from co-transfected HEK293T cells, anti-V5 blot
myc-wild type RhoA [12] = molecular target: myc-wild type RhoA (UniProt P61586); experiment: co-immunoprecipitation, myc-IP from co-transfected PC12 cells stimulated with Nogo-P4 peptide
myc-wild type RhoA [13] = molecular target: myc-wild type RhoA (UniProt P61586); experiment: co-immunoprecipitation from HEK293T cells co-transfected with myc-RhoAWT, CRMP4-V5 and C4RIP-V5

Sequences of proteins named here, by UniProt entry; tags and fusion partners are left off. A change or cut given only in a name is not applied to a line headed by its entry. A line that says so, or that is headed by a name, gives the form on record, which may keep a tag or linker.
UniProt P70336: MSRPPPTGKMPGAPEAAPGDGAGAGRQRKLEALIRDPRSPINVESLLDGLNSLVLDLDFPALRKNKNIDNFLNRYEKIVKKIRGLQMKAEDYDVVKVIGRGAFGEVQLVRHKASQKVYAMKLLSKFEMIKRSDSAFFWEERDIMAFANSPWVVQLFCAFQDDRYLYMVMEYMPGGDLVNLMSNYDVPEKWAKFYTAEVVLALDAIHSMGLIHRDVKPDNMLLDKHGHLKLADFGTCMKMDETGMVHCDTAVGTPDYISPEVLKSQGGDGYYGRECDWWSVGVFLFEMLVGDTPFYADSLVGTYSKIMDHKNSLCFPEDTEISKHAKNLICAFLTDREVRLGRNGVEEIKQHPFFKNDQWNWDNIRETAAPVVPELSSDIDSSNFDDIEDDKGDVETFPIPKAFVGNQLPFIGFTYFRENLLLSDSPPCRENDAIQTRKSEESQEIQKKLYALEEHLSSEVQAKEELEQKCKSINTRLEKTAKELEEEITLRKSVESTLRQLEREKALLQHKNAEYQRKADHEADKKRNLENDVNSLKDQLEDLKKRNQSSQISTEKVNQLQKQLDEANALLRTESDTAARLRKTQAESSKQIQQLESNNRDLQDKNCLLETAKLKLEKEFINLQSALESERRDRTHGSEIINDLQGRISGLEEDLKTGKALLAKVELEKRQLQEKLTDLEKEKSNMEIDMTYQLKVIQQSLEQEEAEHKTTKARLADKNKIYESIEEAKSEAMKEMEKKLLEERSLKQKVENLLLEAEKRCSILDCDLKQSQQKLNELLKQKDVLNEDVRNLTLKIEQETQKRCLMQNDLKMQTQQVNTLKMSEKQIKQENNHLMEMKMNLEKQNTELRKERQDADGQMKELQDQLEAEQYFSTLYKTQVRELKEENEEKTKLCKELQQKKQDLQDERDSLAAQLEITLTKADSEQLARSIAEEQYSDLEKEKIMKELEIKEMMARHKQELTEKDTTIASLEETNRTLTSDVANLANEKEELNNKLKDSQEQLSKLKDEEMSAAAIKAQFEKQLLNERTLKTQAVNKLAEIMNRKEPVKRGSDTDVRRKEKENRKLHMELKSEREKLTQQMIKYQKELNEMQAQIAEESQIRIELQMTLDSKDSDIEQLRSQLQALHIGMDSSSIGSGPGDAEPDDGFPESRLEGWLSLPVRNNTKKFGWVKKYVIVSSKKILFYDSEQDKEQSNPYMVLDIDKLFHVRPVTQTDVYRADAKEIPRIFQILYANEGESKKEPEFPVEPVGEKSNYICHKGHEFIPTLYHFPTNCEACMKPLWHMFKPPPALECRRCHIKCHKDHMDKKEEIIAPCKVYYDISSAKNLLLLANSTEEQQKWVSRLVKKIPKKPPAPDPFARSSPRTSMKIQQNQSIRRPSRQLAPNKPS
UniProt P61586: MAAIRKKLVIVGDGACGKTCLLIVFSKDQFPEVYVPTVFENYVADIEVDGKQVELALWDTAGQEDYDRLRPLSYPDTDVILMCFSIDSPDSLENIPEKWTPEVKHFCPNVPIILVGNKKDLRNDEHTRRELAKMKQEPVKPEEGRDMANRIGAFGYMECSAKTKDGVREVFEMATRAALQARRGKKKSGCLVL
myc-RhoA63L (P61586, form named): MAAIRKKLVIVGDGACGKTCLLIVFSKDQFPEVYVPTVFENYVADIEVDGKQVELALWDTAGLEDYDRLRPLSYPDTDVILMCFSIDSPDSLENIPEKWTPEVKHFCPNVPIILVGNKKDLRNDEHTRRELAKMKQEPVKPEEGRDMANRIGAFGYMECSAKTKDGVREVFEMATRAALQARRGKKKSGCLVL
myc-RhoAN19 (P61586, form named): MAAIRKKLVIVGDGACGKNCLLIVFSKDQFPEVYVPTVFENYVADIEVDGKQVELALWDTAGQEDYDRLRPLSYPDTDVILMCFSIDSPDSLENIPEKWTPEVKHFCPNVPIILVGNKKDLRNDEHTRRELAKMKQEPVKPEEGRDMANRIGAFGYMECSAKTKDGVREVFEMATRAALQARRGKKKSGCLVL
UniProt Q62952: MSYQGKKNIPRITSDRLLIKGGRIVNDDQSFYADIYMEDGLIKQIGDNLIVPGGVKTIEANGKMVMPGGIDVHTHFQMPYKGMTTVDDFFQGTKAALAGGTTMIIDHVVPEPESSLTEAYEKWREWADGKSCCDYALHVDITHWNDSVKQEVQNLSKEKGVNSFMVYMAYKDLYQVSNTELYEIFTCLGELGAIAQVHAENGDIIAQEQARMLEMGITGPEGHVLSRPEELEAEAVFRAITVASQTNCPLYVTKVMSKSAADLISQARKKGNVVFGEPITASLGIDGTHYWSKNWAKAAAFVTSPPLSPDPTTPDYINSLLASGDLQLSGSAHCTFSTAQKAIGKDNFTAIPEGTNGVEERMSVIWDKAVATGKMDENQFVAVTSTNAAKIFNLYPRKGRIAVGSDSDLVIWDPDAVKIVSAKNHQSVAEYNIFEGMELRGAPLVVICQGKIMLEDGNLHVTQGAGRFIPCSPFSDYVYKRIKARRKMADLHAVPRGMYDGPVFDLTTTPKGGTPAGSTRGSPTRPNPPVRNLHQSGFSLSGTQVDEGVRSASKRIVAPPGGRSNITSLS

Measured: binding

FLAG-RhoA63L (from UniProt P61586 1-193)
binds: myc-Rho kinase

CRMP4ΔN-V5 (from UniProt Q62952 13-570)
binds: myc-RhoA63L [1]

recombinant RhoA (bacterially-purified, cleaved from GST) (from UniProt P61586 1-193)
binds: CRMP4a-V5 (rat) [2] | CRMP4b-V5 (rat) [3] | CRMP4a-V5 (rat) [4] | CRMP4b-V5 (rat) [5]

CRMP4a-V5 (from UniProt Q62952 1-570)
binds: myc-RhoA63L [6] | myc-RhoAN19 [7] | myc-wild type RhoA [8] | myc-RhoA63L [9] | myc-RhoAN19 [10] | myc-wild type RhoA [11] | myc-wild type RhoA [12] | myc-wild type RhoA [13]

Source: patent US7935349
